This is one part of the list. Further columns of the screen follow, without active or inactive calls. The list favours compounds with an active or inconclusive main result. Words in brackets tell the shape of the fitted curve; partial curves, single points and poor fits give uncertain potencies.
Test: qHTS Assay for Lipid Storage Modulators in Drosophila S3 Cells;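 on cell number change: cells counted by Cell Tracker Red CMTPX staining in the red channel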
Settings: BODIPY lipid droplet fluorescence, 18-24 h; for cell number change: measured here: cell count max response, cells fed with added oleic acid
Method in brief: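 Laser-scanning cytometry quantifies lipid droplet accumulation (500–530 nm total intensity; droplet/cell object ratio) in oleic acid-fed (400 uM added) Drosophila S3 cells treated with a concentration series. 20 uM Triacsin C defined 100% inhibition.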

[1] = measured here: lipid fluorescence (Fed channel) AC50, cells fed with added oleic acid
[2] = measured here: cell number channel AC50, cells fed with added oleic acid

| SMILES | cell number change [%] | AC50 [1] | AC50 [2] |
| --- | --- | --- | --- |
| Cc1cccc(NC(=O)CNC(=O)C(NC(=O)Cc2ccccc2)C(C)C)c1C (configuration not stated) | -4.81 | 1.3 µM [rising, partial curve] | – |
| CC(NC(=O)COc1ccc(/C=N/NC(=O)C(=O)Nc2ccccc2Br)cc1)c1ccccc1 (configuration not stated) | -14.6 | 0.164 µM [rising, full curve, poor fit] | 0.00461 µM [rising, full curve, poor fit] |
| CC(Sc1nnc(-c2ccncc2)n1C)C(=O)Nc1ccc(N2CCOCC2)cc1 (configuration not stated) | -50.2 | 32.6 µM [falling, partial curve, poor fit] | 25.9 µM [falling, partial curve, poor fit] |
| CC(C)(/C=N/O)/[N+]([O-])=C/c1ccccc1 | -43.3 | – | – |
| Cc1ccc2cc3cc(C(=O)N4CCN(C(=O)c5ccco5)CC4)sc3nc2c1 | – | 2.91 µM [rising, partial curve] | 2.59 µM [rising, partial curve] |
| O=C(CN(C(=O)c1csnn1)c1ccccc1Cl)NCCc1ccccc1 | 2.56 | 29.1 µM [falling, single point] | – |
| CCn1ccc(C(=O)Nc2ccc(N(C)C(C)=O)cc2)n1 | 8.63 | 0.092 µM [rising, full curve, poor fit] | – |
| CC(O)/C=C/c1cccc[n+]1C (configuration not stated) | 24.5 | 6.51 µM [falling, single point] | 6.51 µM [falling, single point] |
| CC(C)(C)C1CCC(=NNC(=O)C(=O)NCc2ccco2)CC1 (configuration not stated) | -46.4 | – | – |
| CCOC(=O)C(=O)N1CCC(C(=O)OC)CC1 | -23.9 | 1.16 µM [falling, full curve] | 6.51 µM [falling, single point] |
| O=C(NCCCc1ccccc1)C(=O)NCC1OCCN1S(=O)(=O)c1ccc(F)cc1 (configuration not stated) | 15.1 | 18.4 µM [rising, single point] | – |
| Cc1ccoc1C(=O)N1CCN(C(=O)c2occc2C)CC1 | 18.5 | – | – |
| COc1ccc(CC(=O)N(CCC2=CCCCC2)c2c(N)n(Cc3ccccc3)c(=O)[nH]c2=O)cc1OC | -30.3 | – | 23.1 µM [falling, partial curve] |
| O=C(/C=C\Nc1ccc(S(=O)(=O)Nc2ncccn2)cc1)c1ccccc1 | -24.9 | 0.206 µM [falling, full curve] | – |
| Nc1nc(N)nc(-c2cc(C(F)(F)F)ccc2Cl)n1 | 14 | 2.06 µM [rising, single point] | – |
| CCc1ccc(OCC(=O)N/N=C(\C)c2ccc3c(c2)OCCO3)cc1 | 10.5 | 5.17 µM [rising, partial curve] | – |
| O=Cc1cccn1-c1cccnc1 | -5.45 | – | 0.00651 µM [falling, full curve, poor fit] |
| COc1ccc(N(CC(=O)NCc2ccc(C)cc2)S(=O)(=O)c2c(C)noc2C)cc1 | 9.67 | 23.1 µM [rising, partial curve] | – |
| c1cncc(CNc2ncnc3ccc(-c4ccco4)cc23)c1 | -9.31 | – | – |

Single entries from the results shown.
Cc1ccc2cc3cc(C(=O)N4CCN(C(=O)c5ccco5)CC4)sc3nc2c1 | AC50 [2]: 2.59 µM [rising, partial curve]
Cc1cccc(NC(=O)CNC(=O)C(NC(=O)Cc2ccccc2)C(C)C)c1C (configuration not stated) | AC50 [1]: 1.3 µM [rising, partial curve]

Remaining list, next part.

| SMILES | cell number change [%] | AC50 [1] | AC50 [2] |
| --- | --- | --- | --- |
| NC(=O)c1ccc(NCCc2ccccc2)c([N+](=O)[O-])c1 | -37.6 | 6.31 µM [falling, single point] | – |
| COC(=O)c1ccc(C(=O)OC)c(NC(=S)N2CCN(c3cc(Cl)ccc3C)CC2)c1 | 17.4 | 5.17 µM [rising, partial curve, poor fit] | – |
| O=C(c1ccc2ccccc2c1)C1CCCN(C(=O)c2cccnc2)C1 (configuration not stated) | -6.07 | 3.26 µM [rising, partial curve, poor fit] | – |
| CC(C)(C)n1nnnc1CN(Cc1ccco1)Cc1cc2cc3c(cc2[nH]c1=O)OCO3 | – | – | 2.91 µM [rising, partial curve] |
| CCCn1c(C(C)Nc2nc(-c3cc(Cl)c(N)c(Cl)c3)cs2)nc2cc(Cl)c(N3CCCCC3)cc21 (configuration not stated) | 22.7 | 18.4 µM [rising, partial curve] | – |
| CN(C)CC(O)COC(c1ccccc1)c1ccccc1 (configuration not stated) | 24.7 | – | 0.00461 µM [falling, full curve, poor fit] |
| COc1ccc(OC)c(CCNC(=O)Cc2ccc(NC3=NC4CS(=O)(=O)CC4S3)cc2)c1 (configuration not stated) | 18.2 | 29.1 µM [rising, single point] | – |
| CC(C)=CC(=O)OCC(=O)Nc1ccc(SC(F)F)cc1 | -14 | 5.8 µM [falling, full curve, poor fit] | – |
| Cc1ccc(S(=O)(=O)N(CCCO)CC(O)CON=C2c3ccccc3-c3ccccc32)cc1 (configuration not stated) | -16.2 | 29.1 µM [falling, single point] | – |
| COc1ccc(C(=O)C2CCCN(Cc3ccc4c(c3)OCCO4)C2)cc1F (configuration not stated) | 20.8 | 2.59 µM [rising, partial curve, poor fit] | – |
| COCCn1c(=N)c(S(=O)(=O)c2ccc(Br)cc2)cc2c(=O)n3ccccc3nc21 | 14.5 | 29.1 µM [rising, single point] | – |
| COc1cccc(N(C(=O)c2csnn2)C(C(=O)NC2CCCC2)c2ccccc2)c1 (configuration not stated) | 25.6 | – | – |
| CCN1CN(Cc2ccco2)CNC1=S | – | 4.61 µM [falling, single point] | 1.64 µM [falling, partial curve] |
| O=C(Nc1ccc(F)c(F)c1)C1CCN(S(=O)(=O)c2cccs2)CC1 | -20.2 | 0.231 µM [falling, full curve] | – |
| COCCn1nnnc1C(CC(C)C)N1CCN(c2cccc(OC)c2)CC1 (configuration not stated) | 36.5 | – | 18.4 µM [rising, single point] |
| COc1ccc(C(C(=O)NC2CCCC2)N(C(=O)c2ccco2)c2ccccc2C(C)=O)cc1OC (configuration not stated) | -10.3 | 5.8 µM [falling, partial curve] | – |
| Cn1c(Cc2ccccc2)nnc1SCc1nc2ccccc2c(=O)[nH]1 | – | 0.58 µM [rising, full curve] | 1.3 µM [rising, partial curve] |
| CCN(CC)C(=O)c1[nH]cnc1C(=O)NCCCCCNC(=O)OC(C)(C)C | 5.54 | 29.1 µM [rising, single point] | – |

— PubChem BioAssay AID2685 (National Center for Advancing Translational Sciences (NCATS), 2010)
